Experimental data reported in publication PMC11749561.
Results are given in words; binding and its absence hold for the method and conditions named. In cells and extracts the contact can be indirect. Some results given as binding are weak or reduced against the parent protein; the word gives no strength.

Amino acid sequences for entries named in this document (tags omitted).
UniProt O96017: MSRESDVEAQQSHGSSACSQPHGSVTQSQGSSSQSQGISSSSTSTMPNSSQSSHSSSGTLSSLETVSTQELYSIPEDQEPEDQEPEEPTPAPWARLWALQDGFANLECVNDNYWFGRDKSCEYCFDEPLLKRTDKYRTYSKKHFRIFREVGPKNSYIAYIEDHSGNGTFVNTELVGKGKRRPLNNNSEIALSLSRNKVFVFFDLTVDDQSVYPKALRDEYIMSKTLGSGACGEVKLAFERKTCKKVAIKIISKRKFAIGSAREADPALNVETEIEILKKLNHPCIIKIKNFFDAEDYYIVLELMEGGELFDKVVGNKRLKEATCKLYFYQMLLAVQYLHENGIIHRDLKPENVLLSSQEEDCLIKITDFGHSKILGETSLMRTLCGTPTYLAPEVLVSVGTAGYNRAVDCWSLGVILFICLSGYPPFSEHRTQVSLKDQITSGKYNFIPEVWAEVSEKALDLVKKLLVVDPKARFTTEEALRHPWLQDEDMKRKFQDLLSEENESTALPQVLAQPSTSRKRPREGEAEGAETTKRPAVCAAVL
UniProt O00327: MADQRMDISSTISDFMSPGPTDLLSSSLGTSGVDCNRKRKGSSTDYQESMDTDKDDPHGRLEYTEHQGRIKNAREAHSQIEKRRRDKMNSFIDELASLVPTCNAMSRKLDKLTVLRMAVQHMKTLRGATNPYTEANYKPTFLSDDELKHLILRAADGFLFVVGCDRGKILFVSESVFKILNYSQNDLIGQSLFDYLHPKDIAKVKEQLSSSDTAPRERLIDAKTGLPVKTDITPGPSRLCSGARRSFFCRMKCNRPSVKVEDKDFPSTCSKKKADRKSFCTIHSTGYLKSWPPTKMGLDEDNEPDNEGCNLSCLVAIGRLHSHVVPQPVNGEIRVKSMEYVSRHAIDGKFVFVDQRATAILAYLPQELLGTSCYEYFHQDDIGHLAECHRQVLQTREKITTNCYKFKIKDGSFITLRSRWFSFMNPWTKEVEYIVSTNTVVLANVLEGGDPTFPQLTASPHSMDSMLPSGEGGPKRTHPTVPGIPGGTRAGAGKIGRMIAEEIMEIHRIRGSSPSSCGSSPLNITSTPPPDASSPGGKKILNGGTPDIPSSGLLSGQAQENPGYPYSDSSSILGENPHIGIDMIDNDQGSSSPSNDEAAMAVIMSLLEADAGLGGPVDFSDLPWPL

Key:
[1] = biological target: checkpoint kinase CHK2 (UniProt O96017); experiment: co-IP; in HEK293T cells; untreated or at the indicated time points post 8 Gy X-irradiation; with or without the CHK2 inhibitor BML-277 (20 min post 8 Gy); bait not stated
[2] = biological target: brain and muscle ARNT-like 1 (BMAL1) (UniProt O00327); experiment: as above

| binding [1] | binding [2] | Molecule |
| --- | --- | --- |
| no binding | – | brain and muscle ARNT-like 1 (BMAL1) (from UniProt O00327 1-626) |
| binds | binds | circadian locomotor output cycles kaput (CLOCK) (protein, UniProt O15516 1-846) MLFTVSCSKMSSIVDRDDSSIFDGLVEEDDKDKAKRVSRNKSEKKRRDQFNVLIKELGSMLPGNARKMDKSTVLQKSIDFLRKHKEITAQSDASEIRQDWKPTFLSNEEFTQLMLEALDGFFLAIMTDGSIIYVSESVTSLLEHLPSDLVDQSIFNFIPEGEHSEVYKILSTHLLESDSLTPEYLKSKNQLEFCCHMLRGTIDPKEPSTYEYVKFIGNFKSLNSVSSSAHNGFEGTIQRTHRPSYEDRVCFVATVRLATPQFIKEMCTVEEPNEEFTSRHSLEWKFLFLDHRAPPIIGYLPFEVLGTSGYDYYHVDDLENLAKCHEHLMQYGKGKSCYYRFLTKGQQWIWLQTHYYITYHQWNSRPEFIVCTHTVVSYAEVRAERRRELGIEESLPETAADKSQDSGSDNRINTVSLKEALERFDHSPTPSASSRSSRKSSHTAVSDPSSTPTKIPTDTSTPPRQHLPAHEKMVQRRSSFSSQSINSQSVGSSLTQPVMSQATNLPIPQGMSQFQFSAQLGAMQHLKDQLEQRTRMIEANIHRQQEELRKIQEQLQMVHGQGLQMFLQQSNPGLNFGSVQLSSGNSSNIQQLAPINMQGQVVPTNQIQSGMNTGHIGTTQHMIQQQTLQSTSTQSQQNVLSGHSQQTSLPSQTQSTLTAPLYNTMVISQPAAGSMVQIPSSMPQNSTQSAAVTTFTQDRQIRFSQGQQLVTKLVTAPVACGAVMVPSTMLMGQVVTAYPTFATQQQQSQTLSVTQQQQQQSSQEQQLTSVQQPSQAQLTQPPQQFLQTSRLLHGNPSTQLILSAAFPLQQSTFPQSHHQQHQSQQQQQLSRHRTDSLPDPSKVQPQ |
